Data reported in the supplement of paper PMC10727501.
Some of the results follow. Single values are uncertain here, since repeats match poorly.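 Free-swimming zebrafish larvae were assessed for O-bend response probability to dark flashes (naive: first five; training: remaining flashes across four 60-flash blocks; test: later 60-flash block) and for OMR turning toward alternating leftward/rightward LED motion. Six treated larvae were compared against sixty 0.1% DMSO controls; hits required |SSMD|≥2.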

Assays:
Details in all cases: 10 µM; pre-incubation: 30-90 min
[1] = system: Danio rerio larvae (5 dpf, TLF); experiment: OMR-Perf (SSMD vs DMSO vehicle); higher = higher than vehicle (e.g. higher dark-flash O-bend response probability, or better optomotor performance)
[2] = system: Danio rerio larvae (5 dpf, TLF); experiment: Prob-Test (SSMD vs DMSO vehicle); higher = higher than vehicle (e.g. higher dark-flash O-bend response probability, or better optomotor performance)
[3] = system: Danio rerio larvae (5 dpf, TLF); experiment: Prob-Naive (SSMD vs DMSO vehicle); higher = higher than vehicle (e.g. higher dark-flash O-bend response probability, or better optomotor performance)
[4] = system: Danio rerio larvae (5 dpf, TLF); experiment: Prob-Train (SSMD vs DMSO vehicle); higher = higher than vehicle (e.g. higher dark-flash O-bend response probability, or better optomotor performance)

With `C[C@H]1C[C@H]2[C@@H]3CCC4=CC(=O)C=C[C@]4(C)[C@]3(F)[C@H](O)C[C@]2(C)[C@]1(O)C(=O)CO` [Betamethasone] the OMR-Perf [1] was 0.521, the Prob-Test [2] was -0.084 and the Prob-Naive [3] was -0.0365. The Prob-Train [4] was 0.389.
`COc1ccc(C2=NC(c3ccc(Cl)cc3)C(c3ccc(Cl)cc3)N2C(=O)N2CCNC(=O)C2)c(OC(C)C)c1` (stereo not drawn) [Nutlin-3] showed an OMR-Perf [1] of -0.0928, a Prob-Test [2] of -0.59 and a Prob-Naive [3] of 0.135. For the same compound, the Prob-Train [4] was -0.366.
`C[C@H]1[C@H](O)O[C@H]2O[C@@]3(C)CC[C@H]4[C@@H](C)CC[C@@H]1[C@@]24OO3` [Dihydroartemisinin (DHA)] was tested, and the OMR-Perf [1] was -0.784, the Prob-Test [2] was -0.128 and the Prob-Naive [3] was 0.0956. For the same compound, the Prob-Train [4] was -0.247.
In the case of `Cc1ncc(C[n+]2csc(CCO)c2C)c(N)n1.Cl.[Cl-]` [Thiamine HCl (Vitamin B1)], the OMR-Perf [1] is reported as -0.0685, the Prob-Test [2] is reported as -0.452 and the Prob-Naive [3] is reported as -0.0745. The Prob-Train [4] was -0.0684.
Work on `O=C(COc1cccc2c(=O)[nH]ccc12)c1ccccc1` yielded an OMR-Perf [1] of 0.412, a Prob-Test [2] of -1.08 and a Prob-Naive [3] of -0.735. It also gave a Prob-Train [4] of -1.2.
Work on `CCOC(=O)[C@H](CCc1ccccc1)N[C@H]1CCc2ccccc2N(CC(=O)O)C1=O.Cl` [Benazepril HCl] yielded an OMR-Perf [1] of -0.407, a Prob-Test [2] of -0.16 and a Prob-Naive [3] of -0.226. It also gave a Prob-Train [4] of -0.678.
With `Cc1ccc2c(c1)c1c(n2CCc2ccc(C)nc2)CCN(C)C1` [Latrepirdine] the OMR-Perf [1] was -0.627, the Prob-Test [2] was -0.898 and the Prob-Naive [3] was 0.271. The Prob-Train [4] was -0.335.
Compound `O=C1c2c(O)cc(O)cc2O[C@H](c2cc(O)c(O)c(O)c2)[C@H]1O` [Dihydromyricetin] has an OMR-Perf [1] of 0.153, a Prob-Test [2] of 0.279 and a Prob-Naive [3] of 0.208. It also gave a Prob-Train [4] of 0.377.
In the case of `CCN(CC)C(=O)[C@]1(c2ccccc2)C[C@@H]1CN.Cl` [Milnacipran HCl], the OMR-Perf [1] is reported as 0.0122, the Prob-Test [2] is reported as -0.0307 and the Prob-Naive [3] is reported as 0.536. The Prob-Train [4] was -0.352.
In the case of `CN1CCC(NC(=O)C2=CC(=C3C(O)=CC(=O)C=C3Oc3ccc([N+](=O)[O-])cc3)ON2)CC1`, the OMR-Perf [1] is reported as -0.0338, the Prob-Test [2] is reported as 0.205 and the Prob-Naive [3] is reported as 0.0243. It also gave a Prob-Train [4] of 0.43.
`CN(C)c1ccc(C(=O)NCCCCCCC(=O)NO)cc1` was tested, and the OMR-Perf [1] was -0.205, the Prob-Test [2] was -0.315 and the Prob-Naive [3] was 0.587. The Prob-Train [4] was 0.151.
In the case of `COc1ccc2cc3[n+](cc2c1OC)CCc1cc2c(cc1-3)OCO2.[Cl-]` [Berberine HCl], the OMR-Perf [1] is reported as -0.00232, the Prob-Test [2] is reported as 0.0574 and the Prob-Naive [3] is reported as 0.0498. For the same compound, the Prob-Train [4] was -0.157.
`CN1CCC(=C2c3ccccc3C=Cc3ccccc32)CC1.Cl` [Cyproheptadine HCl] showed an OMR-Perf [1] of 0.292, a Prob-Test [2] of -1.53 and a Prob-Naive [3] of -1.02. It also gave a Prob-Train [4] of -1.15.
`COc1cc2c(cc1Cc1cccc(Cl)c1F)c(=O)c(C(=O)O)cn2[C@H](CO)C(C)C` [Elvitegravir (GS-9137, JTK-303)] gave an OMR-Perf [1] of -0.477, a Prob-Test [2] of 0.0909 and a Prob-Naive [3] of -0.0101. The Prob-Train [4] was -0.0651.
In the case of `Cn1nnc2c(C(N)=O)ncn2c1=O` [Temozolomide], the OMR-Perf [1] is reported as 0.525, the Prob-Test [2] is reported as 0.262 and the Prob-Naive [3] is reported as 0.454. For the same compound, the Prob-Train [4] was -0.177.
`Nc1ncnc2n[nH]c(Nc3ccc(F)cc3)c12` showed an OMR-Perf [1] of -0.128, a Prob-Test [2] of 0.0829 and a Prob-Naive [3] of -0.0588. For the same compound, the Prob-Train [4] was 0.429.
`Nc1nc(F)nc2c1ncn2[C@@H]1O[C@H](COP(=O)(O)O)[C@@H](O)[C@@H]1O` [Fludarabine Phosphate] gave an OMR-Perf [1] of -0.242, a Prob-Test [2] of 0.0841 and a Prob-Naive [3] of 0.0529. The Prob-Train [4] was -0.254.
In the case of `Cl.O[C@H](CNC[C@@H](O)[C@H]1CCc2cc(F)ccc2O1)[C@@H]1CCc2cc(F)ccc2O1` [Nebivolol], the OMR-Perf [1] is reported as -0.698, the Prob-Test [2] is reported as 0.0374 and the Prob-Naive [3] is reported as -0.0337. For the same compound, the Prob-Train [4] was -1.11.
`CC1(C)O[C@@H]2C[C@H]3[C@@H]4CCC5=CC(=O)C=C[C@]5(C)[C@]4(F)[C@H](O)C[C@]3(C)[C@@]2(C(=O)CO)O1` [Triamcinolone Acetonide] showed an OMR-Perf [1] of 0.655, a Prob-Test [2] of 0.0274 and a Prob-Naive [3] of 0.121. The Prob-Train [4] was 0.575.
Work on `Cc1ccccc1C(C(=O)NC1CCCCC1)N(C(=O)Cn1ccnc1C)c1cccc(F)c1` (stereo not drawn) yielded an OMR-Perf [1] of -0.288, a Prob-Test [2] of 0.597 and a Prob-Naive [3] of 0.118. For the same compound, the Prob-Train [4] was -0.102.
Work on `C[C@]12CCC(=O)C=C1[C@@H]1C[C@@H]1[C@H]1[C@@H]3[C@@H]4C[C@@H]4[C@]4(CCC(=O)O4)[C@@]3(C)CC[C@H]12` [Drospirenone] yielded an OMR-Perf [1] of -0.819, a Prob-Test [2] of -1.73 and a Prob-Naive [3] of -3.15. For the same compound, the Prob-Train [4] was -2.05.
Work on `COc1ccc2c(Oc3ccc(NC(=O)c4c(C)n(CC(C)(C)O)n(-c5ccccc5)c4=O)nc3)ccnc2c1` yielded an OMR-Perf [1] of -0.139, a Prob-Test [2] of -0.801 and a Prob-Naive [3] of -0.186. It also gave a Prob-Train [4] of -0.333.
